Results are given in words; binding and its absence hold for the method and conditions named. In cells and extracts the contact can be indirect. These calls come from enrichment with a bait or labelling near it, and not all partners need be listed.
Target: IGF2BP2 (human (endogenous in MKN-45 and MKN-28)) (UniProt Q9Y6M1)
Assay: affinity purification with mass spectrometry; mass spectrometry (Fig. 5B); bait, cells and conditions not told

By UniProt entry, the sequences of proteins in these tests, tags left out.
UniProt Q9Y6M1: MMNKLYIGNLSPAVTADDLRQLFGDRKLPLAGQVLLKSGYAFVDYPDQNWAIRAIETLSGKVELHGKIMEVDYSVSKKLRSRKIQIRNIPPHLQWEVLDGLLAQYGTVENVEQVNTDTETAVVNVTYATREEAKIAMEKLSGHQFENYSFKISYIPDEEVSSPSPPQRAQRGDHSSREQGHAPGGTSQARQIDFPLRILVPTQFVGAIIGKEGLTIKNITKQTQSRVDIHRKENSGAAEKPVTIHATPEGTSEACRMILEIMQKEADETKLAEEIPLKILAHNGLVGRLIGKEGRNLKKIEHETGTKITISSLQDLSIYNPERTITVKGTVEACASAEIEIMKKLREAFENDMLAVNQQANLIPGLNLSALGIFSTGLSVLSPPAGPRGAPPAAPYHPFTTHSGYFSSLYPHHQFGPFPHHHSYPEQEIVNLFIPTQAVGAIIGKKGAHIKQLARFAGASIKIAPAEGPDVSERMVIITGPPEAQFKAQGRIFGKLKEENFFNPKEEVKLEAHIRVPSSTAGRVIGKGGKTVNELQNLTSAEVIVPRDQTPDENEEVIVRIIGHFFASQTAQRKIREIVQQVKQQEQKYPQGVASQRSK
UniProt Q14258: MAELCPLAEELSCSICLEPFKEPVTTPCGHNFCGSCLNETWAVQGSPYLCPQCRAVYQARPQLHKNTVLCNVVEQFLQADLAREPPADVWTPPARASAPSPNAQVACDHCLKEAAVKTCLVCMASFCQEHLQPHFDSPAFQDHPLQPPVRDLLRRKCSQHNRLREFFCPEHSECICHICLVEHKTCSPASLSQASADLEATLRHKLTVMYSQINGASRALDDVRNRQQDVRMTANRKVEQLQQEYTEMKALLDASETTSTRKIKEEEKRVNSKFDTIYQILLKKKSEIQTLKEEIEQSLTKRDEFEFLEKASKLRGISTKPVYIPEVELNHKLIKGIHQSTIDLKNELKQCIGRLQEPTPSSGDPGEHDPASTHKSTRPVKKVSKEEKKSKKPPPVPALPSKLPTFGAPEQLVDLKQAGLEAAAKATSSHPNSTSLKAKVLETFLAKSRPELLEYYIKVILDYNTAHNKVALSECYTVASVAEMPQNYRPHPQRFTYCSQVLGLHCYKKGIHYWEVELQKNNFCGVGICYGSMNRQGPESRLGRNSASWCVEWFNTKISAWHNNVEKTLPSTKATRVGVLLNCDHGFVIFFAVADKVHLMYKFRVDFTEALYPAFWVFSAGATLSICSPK

binding: binds
Substance: E3 ligase TRIM25 (from UniProt Q14258 1-630) (enzyme)
